Reference: PubChem BioAssay AID248 (DTP/NCI, 2004)
The list is a part of this screen's results and no random one: it is rich in T/C values a quarter to a half above the control, in often repeated tests (any T/C) and in doses without a T/C. Further doses and runs are listed elsewhere. T/C: endpoint of the treated group in % of that of the vehicle group. Some doses have a count of surviving animals in place of a T/C: the source files T/C as zero there, which appears to mark a toxic dose or a test without result, not a measured value. Some doses without a T/C left all or most animals alive at the check, yet need not have been tolerated: survival well below the control is almost never listed, so the zero probably covers shortened survival too. Survivors were counted at the toxicity check, usually on the fifth day, unless a day is given; later deaths do not show. Schedules are NCI's codes, read here as Q, the interval in days (D) or hours (H), X, the number of doses. Some schedule codes hold Z or #, which are not explained here. Where survival is the endpoint, the PubChem record calls one and a half times the control and up active, and a quarter to a half above the control has no call in these data; cut-offs in other NCI protocols can differ. Some doses were run more than once; their values stand side by side, smallest first.

Tested on: L1210 leukemia ip in BDF1 mice, survival T/C
Test: NCI In Vivo Anticancer Drug Screen. Data for tumor model L1210 Leukemia (intraperitoneal) in B6D2F1 (BDF1) mice
Conditions: higher T/C = longer survival
[1] = T/C endpoint: mean survival time, dose: 200.0 mg/kg/injection, schedule: Q01DX001 (ip), vehicle: Klucel (hydroxypropylcellulose) (HPC)
[2] = T/C endpoint: mean survival time, dose: 400.0 mg/kg/injection, schedule: Q01DX001 (ip), vehicle: Klucel (hydroxypropylcellulose) (HPC)
[3] = T/C endpoint: mean survival time, dose: 200.0 mg/kg/injection, schedule: Q01DX009 (ip), vehicle: saline
[4] = T/C endpoint: mean survival time, dose: 400.0 mg/kg/injection, schedule: Q01DX001 (ip), vehicle: saline
[5] = T/C endpoint: mean survival time, dose: 200.0 mg/kg/injection, schedule: Q01DX001 (ip), vehicle: saline

COC(=O)C(Cc1ccc(N(CCCl)CCCl)cc1)N=NNc1nc[nH]c1C(N)=O (stereo not given)
T/C (T/C endpoint: mean survival time, dose: 11.0 mg/kg/injection, schedule: Q01DX009 (ip), vehicle: other): 127 % of control | T/C (T/C endpoint: mean survival time, dose: 17.0 mg/kg/injection, schedule: Q01DX009 (ip), vehicle: other): 125 % of control | T/C (T/C endpoint: mean survival time, dose: 25.0 mg/kg/injection, schedule: Q01DX009 (ip), vehicle: other): 148 % of control | survivor count (T/C endpoint: mean survival time, dose: 38.0 mg/kg/injection, schedule: Q03HX024 (ip), vehicle: other): 4 of 6 | survivor count (T/C endpoint: mean survival time, dose: 56.0 mg/kg/injection, schedule: Q03HX024 (ip), vehicle: other): 4 of 6 | T/C (T/C endpoint: mean survival time, dose: 88.0 mg/kg/injection, schedule: Q01DX001 (ip), vehicle: carboxymethylcellulose (CMC)): 132 % of control | T/C (T/C endpoint: mean survival time, dose: 133.0 mg/kg/injection, schedule: Q01DX001 (ip), vehicle: carboxymethylcellulose (CMC)): 145 % of control | T/C (T/C endpoint: mean survival time, dose: 250.0 mg/kg/injection, schedule: Q01DX001 (ip), vehicle: carboxymethylcellulose (CMC)): 130 % of control | survivor count (T/C endpoint: mean survival time, dose: 300.0 mg/kg/injection, schedule: Q04DX003 (ip), vehicle: other): 6 of 6 | survivor count (T/C endpoint: mean survival time, dose: 450.0 mg/kg/injection, schedule: Q04DX003 (ip), vehicle: other): 4 of 6 | T/C (T/C endpoint: median survival time, dose: 12.5 mg/kg/injection, schedule: Q01DX009 (ip), vehicle: steroid suspending solution): 133 % of control | T/C (T/C endpoint: median survival time, dose: 25.0 mg/kg/injection, schedule: Q01DX009 (ip), vehicle: steroid suspending solution, evaluated on day 30): 133 % of control | T/C (T/C endpoint: median survival time, dose: 25.0 mg/kg/injection, schedule: Q01DX009 (ip), vehicle: steroid suspending solution, evaluated on day 50): 144 % of control | T/C (T/C endpoint: median survival time, dose: 50.0 mg/kg/injection, schedule: Q01DX009 (ip), vehicle: steroid suspending solution): 138 % of control | survivor count (T/C endpoint: median survival time, dose: 100.0 mg/kg/injection, schedule: Q01DX009 (ip), vehicle: steroid suspending solution): 8 of 8 | survivor count (T/C endpoint: median survival time, dose: 200.0 mg/kg/injection, schedule: Q01DX009 (ip), vehicle: steroid suspending solution): 3 of 8

C[NH-].C[NH-].[Br][Pt+2][Br]
T/C (T/C endpoint: mean survival time, dose: 1.25 mg/kg/injection, schedule: Q01DX009 (ip), vehicle: water): 128 and 133 % of control | T/C (T/C endpoint: mean survival time, dose: 1.3 mg/kg/injection, schedule: Q01DX005 (ip), vehicle: saline with Tween-80): 129 % of control | T/C (T/C endpoint: mean survival time, dose: 1.3 mg/kg/injection, schedule: Q01DX009 (ip), vehicle: other): 125 % of control | T/C (T/C endpoint: mean survival time, dose: 2.0 mg/kg/injection, schedule: Q01DX005 (ip), vehicle: saline with Tween-80): 129 % of control | T/C (T/C endpoint: mean survival time, dose: 2.5 mg/kg/injection, schedule: Q01DX009 (ip), vehicle: water): 125 and 132 % of control | T/C (T/C endpoint: mean survival time, dose: 3.0 mg/kg/injection, schedule: Q01DX009 (ip), vehicle: other): 126 % of control | survivor count (T/C endpoint: mean survival time, dose: 4.5 mg/kg/injection, schedule: Q01DX005 (ip), vehicle: saline with Tween-80): 6 of 6 | T/C (T/C endpoint: mean survival time, dose: 5.0 mg/kg/injection, schedule: Q01DX009 (ip), vehicle: water): 130 % of control | survivor count (T/C endpoint: mean survival time, dose: 10.0 mg/kg/injection, schedule: Q01DX009 (ip), vehicle: water): 10 of 10 | T/C (T/C endpoint: mean survival time, dose: 12.5 mg/kg/injection, schedule: Q01DX001 (ip), vehicle: other): 125 % of control | survivor count (T/C endpoint: mean survival time, dose: 100.0 mg/kg/injection, schedule: Q01DX001 (ip), vehicle: other): 0 of 6 | survivor count (T/C endpoint: mean survival time, dose: 200.0 mg/kg/injection, schedule: Q01DX001 (ip), vehicle: other): 0 of 6 | survivor count (T/C endpoint: mean survival time, dose: 400.0 mg/kg/injection, schedule: Q01DX001 (ip), vehicle: other): 0 of 6

CCCCCCCCCCCCCCSCCSCCSCCCCCCCCCCCCCC
survivor count (T/C endpoint: mean survival time, dose: 100.0 mg/kg/injection, schedule: Q01DX001 (ip), vehicle: Klucel (hydroxypropylcellulose) (HPC)): 6 of 6 | survivor count [1]: 6 of 6

COc1cccc(/C=N\N=C\c2cccc(OC)c2OC)c1OC
T/C (T/C endpoint: mean survival time, dose: 100.0 mg/kg/injection, schedule: Q01DX009 (ip), vehicle: saline): 126 % of control

CC1(C)Cc2cccc(C(O)(CCN3CCCCC3)c3ccccc3)c2O1 (stereo not given)
survivor count [1]: 1 of 6 | survivor count [2]: 0 of 6

S=c1nc[nH]c2c1ncn2CN1CCOCC1
T/C (T/C endpoint: mean survival time, dose: 50.0 mg/kg/injection, schedule: Q01DX015 (ip), vehicle: saline): 135 % of control | T/C (T/C endpoint: mean survival time, dose: 72.0 mg/kg/injection, schedule: Q01DX009 (ip), vehicle: carboxymethylcellulose (CMC)): 126 % of control | T/C (T/C endpoint: mean survival time, dose: 177.6 mg/kg/injection, schedule: Q01DX001 (ip), vehicle: carboxymethylcellulose (CMC)): 132 % of control | T/C (T/C endpoint: mean survival time, dose: 200.0 mg/kg/injection, schedule: Q01DX001 (ip), vehicle: carboxymethylcellulose (CMC)): 149 % of control | survivor count [3]: 6 of 6 | T/C (T/C endpoint: mean survival time, dose: 266.8 mg/kg/injection, schedule: Q01DX001 (ip), vehicle: carboxymethylcellulose (CMC)): 129 % of control | T/C [4]: 141 % of control | survivor count (T/C endpoint: mean survival time, dose: 400.0 mg/kg/injection, schedule: Q01DX009 (ip), vehicle: saline): 3 of 6 | survivor count (T/C endpoint: mean survival time, dose: 600.0 mg/kg/injection, schedule: Q01DX001 (ip), vehicle: carboxymethylcellulose (CMC)): 1 of 4 | survivor count (T/C endpoint: mean survival time, dose: 800.0 mg/kg/injection, schedule: Q01DX009 (ip), vehicle: saline): 0 of 6

Cc1ccc(N=Nc2ccc(C)cc2NC(=O)c2ccc(Cl)cc2)cc1
survivor count (T/C endpoint: mean survival time, dose: 100.0 mg/kg/injection, schedule: Q04DX003 (ip), vehicle: saline with Tween-80): 6 of 6 | survivor count (T/C endpoint: mean survival time, dose: 200.0 mg/kg/injection, schedule: Q01DX001 (ip), vehicle: saline with Tween-80): 6 of 6 | survivor count (T/C endpoint: mean survival time, dose: 200.0 mg/kg/injection, schedule: Q04DX003 (ip), vehicle: saline with Tween-80): 6 of 6 | survivor count (T/C endpoint: mean survival time, dose: 400.0 mg/kg/injection, schedule: Q01DX001 (ip), vehicle: saline with Tween-80): 6 of 6

c1cc(N2CCOCC2)ccc1Cc1ccc(N2CCOCC2)cc1
survivor count (T/C endpoint: mean survival time, dose: 400.0 mg/kg/injection, schedule: Q01DX009 (ip), vehicle: Klucel (hydroxypropylcellulose) (HPC)): 4 of 6

CCN(Cc1cc(OC)c(OC)c(OC)c1)C1CCCCC1
survivor count [3]: 2 of 3

Fc1ccc(Cc2nnc(Cc3ccc(F)cc3)nn2)cc1
survivor count (T/C endpoint: mean survival time, dose: 400.0 mg/kg/injection, schedule: Q04DX002 (ip), vehicle: Klucel (hydroxypropylcellulose) (HPC)): 3 of 3

NC(=S)N/N=C(\c1ccc(F)cc1)C1CC1
survivor count (T/C endpoint: mean survival time, dose: 4.0 mg/kg/injection, schedule: Q01DX Z (oral), vehicle: methylcellulose (MC)): 3 of 6 | survivor count (T/C endpoint: mean survival time, dose: 15.0 mg/kg/injection, schedule: Q01DX Z (ip), vehicle: methylcellulose (MC)): 0 of 6 | survivor count (T/C endpoint: mean survival time, dose: 16.0 mg/kg/injection, schedule: Q01DX Z (oral), vehicle: methylcellulose (MC)): 1 of 6 | survivor count (T/C endpoint: mean survival time, dose: 30.0 mg/kg/injection, schedule: Q01DX Z (ip), vehicle: methylcellulose (MC)): 0 of 6 | survivor count (T/C endpoint: mean survival time, dose: 32.0 mg/kg/injection, schedule: Q01DX Z (oral), vehicle: methylcellulose (MC)): 0 of 6 | survivor count (T/C endpoint: mean survival time, dose: 60.0 mg/kg/injection, schedule: Q01DX Z (ip), vehicle: methylcellulose (MC)): 0 of 6 | survivor count (T/C endpoint: mean survival time, dose: 120.0 mg/kg/injection, schedule: Q01DX Z (ip), vehicle: methylcellulose (MC)): 0 of 6

N#CC1C2C=CC(CC2)C1C#N (stereo not given) (tested in a mixture with another compound)
survivor count (T/C endpoint: mean survival time, dose: 20.0 mg/kg/injection, schedule: Q01DX001 (ip), vehicle: saline): 1 of 4 | survivor count (T/C endpoint: mean survival time, dose: 40.0 mg/kg/injection, schedule: Q01DX001 (ip), vehicle: saline): 0 of 4 | survivor count (T/C endpoint: mean survival time, dose: 50.0 mg/kg/injection, schedule: Q01DX001 (ip), vehicle: saline): 0 of 4 | survivor count (T/C endpoint: mean survival time, dose: 80.0 mg/kg/injection, schedule: Q01DX001 (ip), vehicle: saline): 0 of 4 | survivor count (T/C endpoint: mean survival time, dose: 100.0 mg/kg/injection, schedule: Q01DX001 (ip), vehicle: saline): 0 of 4 | survivor count [5]: 0 of 4 | survivor count [4]: 0 of 4

Cc1cc(C(=O)CC(C)C(=O)O)cc2c1sc1ccccc12 (stereo not given)
survivor count [4]: 4 of 4

O=C(COc1ccccc1)Nc1cccnc1
survivor count [2]: 0 of 3

Clc1ccc2nc(Cl)c(Cl)nc2c1
survivor count (T/C endpoint: mean survival time, dose: 400.0 mg/kg/injection, schedule: Q04DX003 (ip), vehicle: Klucel (hydroxypropylcellulose) (HPC)): 6 of 6

CC(=O)Nc1ccc(/C=N/NC(=O)c2cccc3ccccc23)cc1
survivor count [5]: 4 of 4 | survivor count [4]: 2 of 4
